Measurements published in publication doi:10.1101/2021.06.10.447992.
These are yes or no findings as the source states them, for the method shown. In cells and extracts the contact can be indirect. Here binding means that the protein was enriched with, or labelled near, the bait; the list need not be complete. Sequences can lack the tags named with a protein.

Target: T1, COA7 with a C-terminal Flag epitope, expressed in COA7 knockout HEK293T cells (human) (UniProt Q96BR5)
T1 sequence: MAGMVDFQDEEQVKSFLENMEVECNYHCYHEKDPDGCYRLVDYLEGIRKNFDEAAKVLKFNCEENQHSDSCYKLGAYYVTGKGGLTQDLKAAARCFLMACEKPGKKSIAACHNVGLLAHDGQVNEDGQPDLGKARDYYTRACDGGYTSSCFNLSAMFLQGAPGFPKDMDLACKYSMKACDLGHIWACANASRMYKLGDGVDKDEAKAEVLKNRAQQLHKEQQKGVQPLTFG
Experiment: affinity purification with mass spectrometry

## disaggregase CLPB (human (endogenous in HEK293T))
  binding: binds
